Source: patent US20250205375A1, “HER3 RADIOIMMUNOTHERAPY FOR THE TREATMENT OF SOLID CANCERS” (ACTINIUM PHARMACEUTICALS, INC., priority 2023, published 2025)
These are yes or no findings as the source states them, for the method shown. Some results given as binding are weak or reduced against the parent protein; the word gives no strength.

By UniProt entry, the sequences of proteins in these tests, tags left out. Where a name states a change or a piece, a line headed by the entry shows the natural chain unless it says otherwise.
UniProt P21860: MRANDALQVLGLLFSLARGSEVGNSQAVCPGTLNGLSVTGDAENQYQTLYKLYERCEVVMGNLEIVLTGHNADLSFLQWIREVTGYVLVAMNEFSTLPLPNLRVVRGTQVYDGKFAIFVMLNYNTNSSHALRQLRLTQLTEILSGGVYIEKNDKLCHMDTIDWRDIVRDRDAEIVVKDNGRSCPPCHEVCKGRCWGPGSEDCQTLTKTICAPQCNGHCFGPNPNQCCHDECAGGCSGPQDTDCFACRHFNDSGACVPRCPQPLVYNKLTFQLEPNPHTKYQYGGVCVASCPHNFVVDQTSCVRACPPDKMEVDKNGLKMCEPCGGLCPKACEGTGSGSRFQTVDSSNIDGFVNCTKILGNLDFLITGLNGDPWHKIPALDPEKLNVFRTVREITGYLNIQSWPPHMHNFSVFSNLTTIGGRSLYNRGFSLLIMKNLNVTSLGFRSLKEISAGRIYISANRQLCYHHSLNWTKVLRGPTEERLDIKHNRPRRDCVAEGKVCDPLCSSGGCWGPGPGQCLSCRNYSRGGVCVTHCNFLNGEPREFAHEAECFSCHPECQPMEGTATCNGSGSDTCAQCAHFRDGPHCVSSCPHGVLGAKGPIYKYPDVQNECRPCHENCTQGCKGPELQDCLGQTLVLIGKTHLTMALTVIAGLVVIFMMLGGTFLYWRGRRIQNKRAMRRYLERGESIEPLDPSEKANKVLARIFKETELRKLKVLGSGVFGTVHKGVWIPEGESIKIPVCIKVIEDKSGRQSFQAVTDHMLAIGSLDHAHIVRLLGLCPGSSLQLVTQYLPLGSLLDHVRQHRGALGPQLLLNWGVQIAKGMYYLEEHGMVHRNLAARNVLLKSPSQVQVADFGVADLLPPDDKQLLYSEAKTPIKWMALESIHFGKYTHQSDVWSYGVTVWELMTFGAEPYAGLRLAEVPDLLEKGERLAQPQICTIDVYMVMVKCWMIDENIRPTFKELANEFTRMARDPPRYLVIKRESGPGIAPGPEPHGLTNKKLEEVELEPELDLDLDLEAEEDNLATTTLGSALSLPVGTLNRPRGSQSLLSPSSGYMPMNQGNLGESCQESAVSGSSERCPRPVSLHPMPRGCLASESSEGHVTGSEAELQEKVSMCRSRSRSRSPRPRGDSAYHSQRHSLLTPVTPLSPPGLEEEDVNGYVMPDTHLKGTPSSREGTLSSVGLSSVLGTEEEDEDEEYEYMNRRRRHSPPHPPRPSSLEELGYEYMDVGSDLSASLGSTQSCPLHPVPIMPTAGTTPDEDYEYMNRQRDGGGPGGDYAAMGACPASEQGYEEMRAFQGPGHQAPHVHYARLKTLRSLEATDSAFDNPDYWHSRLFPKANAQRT

Target: human HER3 on HER3-positive human cancer cell lines (NCI-H1975, BxPC-3, DU145, 22RV1, LnCAP) (human) (UniProt P21860)
Test: fluorescence flow cytometry cell binding assay on DU145, 22RV1 and LnCAP cells

binding | Binder
binds | AV-203 (naked, unlabeled anti-HER3 monoclonal antibody) (antibody, V domains shown) VH: QVQLVESGGGLVKPGGSLRLSCAASGFTFSDYAMSWIRQAPGKGLEWVSTISDGGTYTYYPDSVKGRFTISRDNAKNSLYLQMNSLRAEDTAVYYCAREWGDYDGFDYWGQGTLVTVSS VL: DIQMTQSPSSLSASVGDRVTITCRASQEISGYLSWYQQKPGKAPKRLIYAASTLDSGVPSRFSGSGSGTEFTLTISSLQPEDFATYYCLQYDSYPYTFGQGTKLEIK
binds | AV-203, DOTA-conjugated (p-SCN-Bn-DOTA-conjugated anti-HER3 monoclonal antibody) (antibody, V domains shown, p-SCN-Bn-DOTA-conjugated; sites not stated) VH: QVQLVESGGGLVKPGGSLRLSCAASGFTFSDYAMSWIRQAPGKGLEWVSTISDGGTYTYYPDSVKGRFTISRDNAKNSLYLQMNSLRAEDTAVYYCAREWGDYDGFDYWGQGTLVTVSS VL: DIQMTQSPSSLSASVGDRVTITCRASQEISGYLSWYQQKPGKAPKRLIYAASTLDSGVPSRFSGSGSGTEFTLTISSLQPEDFATYYCLQYDSYPYTFGQGTKLEIK
